The list is a part of this screen's results and no random one: it is rich in T/C values a quarter to a half above the control, in often repeated tests (any T/C) and in doses without a T/C. Other doses and runs of a compound stand elsewhere. T/C is the treated group as % of the vehicle group. Some doses have a count of surviving animals in place of a T/C: the source files T/C as zero there, which appears to mark a toxic dose or a test without result, not a measured value. Some doses without a T/C left all or most animals alive at the check, yet need not have been tolerated: the source hardly ever lists a survival T/C far under the control, and the zero likely stands for such cases as well. Survivors were counted at the toxicity check, usually on the fifth day, unless a day is given; later deaths do not show. Schedules are NCI's codes, taken here to give the interval after Q, in days (D) or hours (H), and the number of doses after X. Some schedule codes hold Z or #, which are not explained here. For survival time, this PubChem deposit counts one and a half times the control or more as active, and values a quarter to a half above the control carry no call in these data; other NCI protocols may use other cut-offs. Some T/C values carry the count of animals alive at the toxicity check (mostly the fifth day); where none is given, no animal had died by that day. Some entries were tested several times; the results are listed from low to high.
Test system: L1210 leukemia ip in BDF1 mice, survival T/C
Assay: NCI In Vivo Anticancer Drug Screen. Data for tumor model L1210 Leukemia (intraperitoneal) in B6D2F1 (BDF1) mice
Conditions: T/C endpoint: mean survival time, higher T/C = longer survival

Question: For `O=NN(CCCl)C(=O)NCCCl`, which T/C (dose: 7.0 mg/kg/injection, schedule: Q01DX009 (ip), vehicle: saline + alcohol) is on record?
Answer: Its T/C is 285, 303, 306, 314 % of control.

Question: And the T/C (dose: 7.0 mg/kg/injection, schedule: Q07DX Z (oral), vehicle: saline)?
Answer: Its T/C is 134 % of control.

Question: And the T/C (dose: 7.5 mg/kg/injection, schedule: Q01DX001 (ip), vehicle: saline, evaluated on day 5)?
Answer: Its T/C is 141 % of control.

Question: And the T/C (dose: 7.5 mg/kg/injection, schedule: Q01DX001 (ip), vehicle: saline, evaluated on day 60)?
Answer: Its T/C is 141 % of control.

Question: What about the T/C (dose: 8.0 mg/kg/injection, schedule: Q01DX001 (ip), vehicle: distilled water + alcohol) of the same compound?
Answer: The T/C was 147 % of control.

Question: And the T/C (dose: 8.0 mg/kg/injection, schedule: Q01DX001 (ip), vehicle: other)?
Answer: The T/C was 147 % of control.

Question: What about the T/C (dose: 8.0 mg/kg/injection, schedule: Q01DX009 (ip), vehicle: Klucel (hydroxypropylcellulose) (HPC)) of the same compound?
Answer: The T/C was 174, 287, 289, 310 % of control.

Question: And the T/C (dose: 8.0 mg/kg/injection, schedule: Q01DX009 (ip), vehicle: carboxymethylcellulose (CMC))?
Answer: The T/C was 142 % of control.

Question: And the T/C (dose: 8.0 mg/kg/injection, schedule: Q01DX009 (ip), vehicle: saline + alcohol)?
Answer: The T/C was 123, 165, 166, 191, 279, 292, 300 % of control.

Question: What about the T/C (dose: 8.0 mg/kg/injection, schedule: Q01DX009 (ip), vehicle: saline, evaluated on day 30) of the same compound?
Answer: Its T/C is 148, 185, 202, 210, 226, 238, 246, 258, 268, 271, 285, 291, 480 % of control.

Question: What about the T/C (dose: 8.0 mg/kg/injection, schedule: Q01DX009 (ip), vehicle: saline, evaluated on day 60) of the same compound?
Answer: The T/C was 286, 452, 537, 600 % of control.

Question: And the T/C (dose: 8.0 mg/kg/injection, schedule: Q04DX002 (ip), vehicle: saline + alcohol)?
Answer: Its T/C is 163, 174, 178, 180 % of control.

Question: And the T/C (dose: 8.0 mg/kg/injection, schedule: Q#A X Z (oral), vehicle: saline)?
Answer: Its T/C is 142 % of control.

Question: And the T/C (dose: 8.4 mg/kg/injection, schedule: Q01DX001 (ip), vehicle: saline)?
Answer: Its T/C is 138 % of control.

Question: And the T/C (dose: 9.75 mg/kg/injection, schedule: Q01DX001 (ip), vehicle: saline)?
Answer: Its T/C is 138 and 149 % of control.

Question: And the T/C (dose: 10.0 mg/kg/injection, schedule: Q01DX001 (ip), vehicle: saline, evaluated on day 30)?
Answer: The T/C was 188 % of control.

Question: What about the T/C (dose: 10.0 mg/kg/injection, schedule: Q01DX001 (ip), vehicle: saline, evaluated on day 45) of the same compound?
Answer: Its T/C is 182 % of control.

Question: What about the T/C (dose: 10.0 mg/kg/injection, schedule: Q01DX001 (ip), vehicle: saline, evaluated on day 60) of the same compound?
Answer: Its T/C is 564 % of control.

Question: What about the T/C (dose: 10.0 mg/kg/injection, schedule: Q01DX001 (ip), vehicle: saline, run until all animals had died) of the same compound?
Answer: Its T/C is 166 % of control.

Question: And the T/C (dose: 10.0 mg/kg/injection, schedule: Q01DX001 (oral), vehicle: saline)?
Answer: Its T/C is 140 % of control.

Question: What about the T/C (dose: 10.0 mg/kg/injection, schedule: Q01DX009 (ip), vehicle: saline) of the same compound?
Answer: Its T/C is 113, 173, 215, 275 % of control.

Question: And the T/C (dose: 10.5 mg/kg/injection, schedule: Q01DX010 (ip), vehicle: saline)?
Answer: Its T/C is 133 % of control.

Question: What about the T/C (dose: 11.6 mg/kg/injection, schedule: Q01DX001 (ip), vehicle: saline) of the same compound?
Answer: Its T/C is 126 % of control.

Question: What about the T/C (dose: 12.0 mg/kg/injection, schedule: Q01DX001 (oral), vehicle: saline) of the same compound?
Answer: The T/C was 149 % of control.

Question: And the T/C (dose: 12.0 mg/kg/injection, schedule: Q01DX006 (ip), vehicle: saline, evaluated on day 8)?
Answer: Its T/C is 131 % of control.

Question: What about the T/C (dose: 12.0 mg/kg/injection, schedule: Q01DX006 (ip), vehicle: saline, evaluated on day 32) of the same compound?
Answer: Its T/C is 131 % of control.

Question: And the T/C (dose: 12.0 mg/kg/injection, schedule: Q01DX Z (ip), vehicle: saline)?
Answer: The T/C was 149 % of control.

Question: What about the survivor count (dose: 12.0 mg/kg/injection, schedule: Q## X Z (ip), vehicle: saline) of the same compound?
Answer: Its survivor count is 9 of 10.

Question: And the T/C (dose: 13.0 mg/kg/injection, schedule: Q01DX001 (ip), vehicle: saline + alcohol)?
Answer: The T/C was 143 % of control.

Question: And the T/C (dose: 14.0 mg/kg/injection, schedule: Q01DX009 (ip), vehicle: saline + alcohol)?
Answer: The T/C was 113, 120, 121, 150 % of control.

Question: What about the T/C (dose: 14.0 mg/kg/injection, schedule: Q01DX Z (ip), vehicle: carboxymethylcellulose (CMC)) of the same compound?
Answer: The T/C was 147 % of control.

Question: And the T/C (dose: 14.0 mg/kg/injection, schedule: Q12DX003 (ip), vehicle: saline)?
Answer: Its T/C is 141 % of control.

Question: What about the T/C (dose: 14.0 mg/kg/injection, schedule: Q14DX003 (ip), vehicle: saline) of the same compound?
Answer: Its T/C is 145 % of control.

Question: And the T/C (dose: 15.0 mg/kg/injection, schedule: Q01DX001 (ip), vehicle: saline, evaluated on day 5)?
Answer: The T/C was 252 % of control.

Question: And the T/C (dose: 15.0 mg/kg/injection, schedule: Q01DX001 (ip), vehicle: saline, evaluated on day 30)?
Answer: The T/C was 175 and 255 % of control.

Question: What about the T/C (dose: 15.0 mg/kg/injection, schedule: Q01DX001 (ip), vehicle: saline, evaluated on day 45) of the same compound?
Answer: Its T/C is 265 % of control.

Question: And the T/C (dose: 15.0 mg/kg/injection, schedule: Q01DX001 (ip), vehicle: saline, evaluated on day 60)?
Answer: The T/C was 252 % of control.

Question: And the T/C (dose: 16.0 mg/kg/injection, schedule: Q01DX009 (ip), vehicle: Klucel (hydroxypropylcellulose) (HPC))?
Answer: The T/C was 106, 117, 119, 120 % of control.

Question: And the T/C (dose: 16.0 mg/kg/injection, schedule: Q01DX009 (ip), vehicle: saline + alcohol)?
Answer: The T/C was 94, 96, 107, 108, 116, 121, 137 % of control.

Question: And the T/C (dose: 16.0 mg/kg/injection, schedule: Q01DX009 (ip), vehicle: saline, evaluated on day 30)?
Answer: The T/C was 109, 113, 117, 121 [5 of 6 alive], 125, 126, 126 [5 of 6 alive], 128, 131, 135, 148, 155, 326 % of control.

Question: What about the T/C (dose: 16.0 mg/kg/injection, schedule: Q01DX009 (ip), vehicle: saline, evaluated on day 60) of the same compound?
Answer: The T/C was 125, 126, 133, 138 % of control.

Question: What about the T/C (dose: 16.0 mg/kg/injection, schedule: Q04DX002 (ip), vehicle: saline + alcohol) of the same compound?
Answer: The T/C was 200, 222, 259, 303 % of control.

Question: What about the T/C (dose: 16.0 mg/kg/injection, schedule: Q#A X Z (oral), vehicle: saline) of the same compound?
Answer: The T/C was 131 % of control.

Question: What about the T/C (dose: 18.0 mg/kg/injection, schedule: Q01DX001 (ip), vehicle: clinical formulation) of the same compound?
Answer: The T/C was 190, 265, 269, 362 % of control.

Question: What about the T/C (dose: 20.0 mg/kg/injection, schedule: Q01DX001 (ip), vehicle: saline + alcohol, evaluated on day 5) of the same compound?
Answer: Its T/C is 249, 255, 378 % of control.

Question: What about the T/C (dose: 20.0 mg/kg/injection, schedule: Q01DX001 (ip), vehicle: saline + alcohol, evaluated on day 45) of the same compound?
Answer: Its T/C is 230 and 368 % of control.

Question: What about the T/C (dose: 20.0 mg/kg/injection, schedule: Q01DX001 (ip), vehicle: saline + alcohol, evaluated on day 60) of the same compound?
Answer: The T/C was 272 and 465 % of control.

Question: What about the T/C (dose: 20.0 mg/kg/injection, schedule: Q01DX001 (ip), vehicle: saline, evaluated on day 30) of the same compound?
Answer: Its T/C is 256 % of control.
